# Primary screen of a compound library

From ChEMBL document CHEMBL3988442, “University of Dundee, Small-Polar-MMV Screening Library” (2021).

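Phenotypic screen: M. tuberculosis growth, glucose 7H9 medium, 3 days; the read-out is not stated. Compounds at 50 µM. The record gives no direction; compounds that gave an IC50 in retests scored well above the rest, so higher reads as more growth inhibition. About 69,000 compounds were tested under these conditions; 1.1% (about 760) showed 50% or more at least once.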

Results are given as percent effect. How 0% and 100% were set is not recorded. Most values in the screen are low, and negative values occur. The compounds are a random part of those screened. Two or more numbers in one place are separate tests of the same structure; such repeats can differ widely.

| structure | Percent Effect |
|---|---|
| `Cc1cc(C(=O)N2CCC[C@]3(C[C@@H](OCC4CC4)CO3)C2)no1` | 8.124 |
| `CN1CCC2(CC1)CN(C(=O)c1onc3ccccc13)CCCN2C` | -14.69 |
| `Cc1cn2c(n1)CCC(NC(=O)CCCOCc1ccccc1)C2` (centres unmarked) | 1.595 |
| `O=C(O)C(F)(F)F.[H][C@]12CN(Cc3cccs3)C[C@@]1([H])OCCN(S(=O)(=O)C1CC1)C2` | -5.255 & 6.237 |
| `CN1CCCN(C(=O)c2cccc(S(=O)(=O)NCC3(C)COC3)c2)CC1` | 25.37 |
| `CCC(O)CN(c1ccccc1)S(=O)(=O)c1cnc(C)s1` (centres unmarked) | -9.225 & 8.252 |
| `c1ccc(Cn2ccnc2CN2CCCC2c2noc(C3CC3)n2)cc1` (centres unmarked) | -14.8 |
| `COCCN1C=NC2(CCC(C(=O)Nc3ccc(C)cc3)CC2)C1=O` (centres unmarked) | 19.15 & -4.334 |
| `CCCn1nccc1-c1cc(C2CCN(S(C)(=O)=O)CC2)nc(C)n1` | -11.78 |
| `CCNC(=O)c1ncn2c1CN(C)S(=O)(=O)c1ccccc1-2` | -4.355 |
| `CNC(=O)C1CCN(C(=O)NCCc2ccc(Cl)s2)CC1` | -9.723 |
| `CCc1ccc(C(=O)N2CCCCC2Cn2cccn2)o1` (centres unmarked) | 20.62 |
| `Cc1ccoc1CNC(C)c1nnc2n1CCCC2` (centres unmarked) | -24.49 |
| `O=C(NCCO)Nc1c(F)cccc1Oc1ccccc1` | 7.55 & 10.25 |
| `Cc1nc(C)n(CC2CCCN2Cc2cc(C)on2)n1` (centres unmarked) | 11.7 |
| `O=C(O)C(F)(F)F.[H][C@@]12COC[C@]1(C(=O)NC1CC(F)(F)C1)CN(c1cc(OC)ncn1)C2` | -1.247 & 9.596 |
| `[H][C@@]12CCN(Cc3ccc4c(c3)OCO4)C[C@@]1([H])O[C@@H](c1noc(C)n1)C2` | 4.999 |
| `O=S(=O)(c1cccs1)N1Cc2nc(COCC3CC3)oc2C1` | 0.8881 |
| `COc1ccc(S(=O)(=O)NCc2cccnc2N(C)C)cc1F` | -3.014 |
| `COc1ccc(-c2n[nH]cc2CN(C)Cc2ccoc2)c(F)c1` | 15.09 |
| `CN(C)S(=O)(=O)N1CCC(Cn2cccn2)CC1` | 1.459 |
| `CN(C)c1ccc(C(=O)Nc2ccn(Cc3ccccn3)n2)cn1` | 11.28 |
| `Cc1ncc2c(n1)CN(CCOc1ccc3c(c1)CCC(=O)N3)CC2` | -13.2 |
| `N#Cc1cc(NS(=O)(=O)c2ccc(C(=O)O)cc2F)ccc1F` | 26.33 |
| `Cn1ncc2c(NC3CN4CCC3CC4)nc(-c3ccncc3)nc21` (centres unmarked) | -22.64 |
| `CC(C)N1CCC(CC(=O)NC(C(=O)O)c2cc(F)ccc2F)CC1` (centres unmarked) | -3.961 |
| `Cc1ccc(CN2CCC3(CC(C(=O)NCC4CC4)=NO3)C2)cc1C` (centres unmarked) | -26.18 |
| `COCCN1CCc2c(cnc(-c3ccccc3)c2C(=O)O)C1.O=C(O)C(F)(F)F` | -19.6 |
| `Fc1ccc(CNC2CCN(CCc3ccncc3)CC2)cc1F` | 2.515 |
| `Fc1ccc(-c2nc(CN3CCCC3Cn3cncn3)co2)cc1` (centres unmarked) | -38.24 |
| `Cl.Cl.[H][C@@]12CC[C@@H](COCc3csc(C)n3)O[C@]1([H])CCN2` | -14.37 & -61.07 |
| `Cc1ccc(N2CCC3(CCN(C(=O)N(C)C)CC3)CC2)nn1.O=C(O)C(F)(F)F` | 11.79 |
| `O=C(O)Cc1cnc(-c2c(Cl)cccc2Cl)s1` | -10.05 |
| `Cc1cnc(CC2COCCN(C(=O)c3cncs3)C2)cn1` (centres unmarked) | -9.586 |
| `Fc1cccc(N2CCCC3(CN(Cc4ccccn4)CCO3)C2)c1.O=C(O)C(F)(F)F.O=C(O)C(F)(F)F.O=C(O)C(F)(F)F` (centres unmarked) | 8.814 & 17.75 |
| `CNc1cc(C)nc(-c2cc(NC)nc3[nH]ccc23)n1` | 23.57 |
| `CCS(=O)(=O)N1Cc2ncn(C)c2C(COCC2CCOCC2)C1.O=C(O)C(F)(F)F` (centres unmarked) | 34.55 |
| `Cc1cccc(N2CCc3ncc(CNc4ccccn4)n3CC2)n1.O=C(O)C(F)(F)F.O=C(O)C(F)(F)F` | -3.459 |
| `CCc1nn(C)c2[nH]nc(NC(=O)c3cccnc3OC)c12` | -13.63 |
| `Cc1nc(C2CCCN2Cc2cc(Cl)c3c(c2)OCCO3)no1` (centres unmarked) | 55.44 |
| `Cc1c(CN2CCCCC2)c(O)n(CCCO)c(=O)c1C#N` | -8.418 |
| `COCCN1C[C@@H](C(=O)O)[C@H](c2ccccc2C)C1` | -13.53 & 4.053 |
| `Cc1c(NC(C)C(C)C)cccc1C(=O)NCc1ccnn1C` (centres unmarked) | 27.77 |
| `CC(C)(C)c1ccc(S(=O)(=O)CCN2CCNC(=O)CC2)cc1` | -5.66 & 7.709 |
| `CN(Cc1cn2ccccc2c1C#N)C1CCCN(c2cccnn2)C1` (centres unmarked) | 16.39 |
| `N#Cc1ccccc1N1CCN(C(=O)NCCN2CCOCC2)CC1` | -17.01 |
| `CCc1ncncc1C(=O)N1CCN(Cc2ccsc2)CC1` | -27.62 |
| `Nc1nc2nc(C3CCN(C(=O)c4cscn4)C3)ccc2s1` (centres unmarked) | 12.01 |
| `Cc1nnn2c1COC(CNCc1ccccn1)C2.O=C(O)C(F)(F)F` (centres unmarked) | 19.31 & 0.6238 |
| `CC(C)(C)CC(=O)NCC(=O)Nc1ccn(Cc2cccnc2)n1` | -3.32 |
| `CCN1CCC2(CC1)c1nc[nH]c1CCN2S(C)(=O)=O` | -24.34 |
| `O=c1c2sccc2nc2n1CCN(Cc1cccs1)CC2` | 28.36 |
| `CC(C)c1ccc(C2(C(=O)NCCS(N)(=O)=O)CCC2)cc1` | 2.615 & -14.63 |
| `CCNC(=O)C1CCN(Cc2ccc(C(=O)Nc3nnc(C)s3)cc2)C1` (centres unmarked) | 22.36 |
| `COCC(O)CN(C)c1ccnc2cc(F)ccc12` (centres unmarked) | -13.54 |
| `NC(=O)C1CCN(C(=O)NCc2ccccc2Cn2ccnc2)CC1` | -15.51 |
| `O=C(Nc1ccc(I)cc1C(=O)NCCN1CCOCC1)c1cccs1` | 48.71 |
| `[H][C@@]12CCN(C(=O)c3ccncc3)C[C@@]1([H])O[C@@H](C)C2` | -11.23 |
| `O=C(O)C(F)(F)F.[H][C@@]12CCN(C3CCC3)[C@]1([H])CC[C@H](C(=O)NCc1cccs1)O2` | 20.44 |
| `COc1ccc(C)cc1CN(C)Cc1nc2c(cnn2C)c(=O)[nH]1` | -3.198 |
| `CCOCCNC(=O)Cc1cccc(I)c1` | 40.76 |
| `CNC(=O)c1cc2c(nc1NCC1CC1)CCN(S(C)(=O)=O)CC2.O=C(O)C(F)(F)F` | 24.89 |
| `Cc1cc(NCCO)nc(-c2ccccc2O)n1` | 3.411 & 4.539 |
| `CCS(=O)(=O)N1CCc2c(cccc2NC(=O)NCCO)C1` | 26.52 |
| `CN(C)c1nc2c(c(NCc3cc(O)ncn3)n1)CCCC2` | 1.774 |
| `Cc1cc(N2CCC(Cc3ccccc3)CC2)nc(-c2ccncc2)n1` | 27.06 |
| `Cc1cccc2[nH]c(C3CCN(C(=O)c4ccc[nH]4)CC3)nc12` | 11.27 |
| `Cc1nc(CC(=O)NCCN2CCC(c3ccccc3C)C2)cs1` (centres unmarked) | 0.05694 & -5.373 |
| `Cl.Cl.Cn1cnc2c(N3CCOCC3)nc(C3CCNCC3)cc21` | 7.349 & 5.404 |
| `Cc1c[nH]c(C2COCCN2S(=O)(=O)c2cn[nH]c2)n1` (centres unmarked) | 38.17 |
| `NC(=O)CC1CC2(CCNCC2)c2cc(F)ccc21.O=C(O)C(F)(F)F` (centres unmarked) | 2.823 |
| `Cc1ccc(C)n1-c1ccc(C(=O)NCCNc2ncccn2)cc1` | -9.409 |
| `COc1ccccc1CN(C)C(=O)NCc1c(C)cc(C)[nH]c1=O` | 31.7 |
| `COCCN1CCCC2(CCN(c3nccnc3N(C)C)C2)C1=O` (centres unmarked) | -6.849 & 10.43 |
| `O=C(O)C(F)(F)F.[H][C@@]12COC[C@@H](CC(=O)N3CCCCO3)[C@]1([H])CN(CC1CCOCC1)C2` | 3.639 |
| `C[S+]([O-])c1cccc(NC(=O)N(CCC#N)Cc2ccccn2)c1` (centres unmarked) | 24.45 & -0.6284 |
| `Cc1cc(N2CCCC2c2cncc(N(C)C)n2)ncn1` (centres unmarked) | -28.47 |
| `COc1c(CNC2CCSc3ccc(F)cc32)c(C)nn1C.Cl` (centres unmarked) | -10.74 |
| `COc1nn(C)cc1C(=O)NCC(=O)NCc1cccnc1` | -7.713 & 0.2587 |
| `Cc1ccsc1C(=O)NCc1ccnc(N2CCN(C)CC2)c1` | 14.43 |
| `CC(NC(N)=O)C(=O)NCc1ccnc(Oc2ccc(F)cc2)c1` (centres unmarked) | -3.105 & 16.83 |
| `Cc1nc(N2CCN(C(=O)c3ccc(O)cc3)CC2)c2cnn(C)c2n1` | 37.48 |
| `Nc1nc(N)c2c(n1)OC1(CCN(Cc3nccs3)C1)C2` (centres unmarked) | -15.07 |
| `Cc1nc2c(c(NCCc3nc4c(s3)CCCC4)n1)CCNCC2` | 17.41 & 4.944 |
| `Cc1cc(C2CCC2)nc(N(C)Cc2cnccn2)n1` | 21.75 |
| `Cc1ccc(NC(=O)CN2CCCNC2=O)c(SC(F)(F)F)c1` | 7.73 |
| `Cc1cc(C(=O)N2CCN(CC(O)Cn3cccn3)CC2)c(C)o1` (centres unmarked) | -10.83 |
| `COCC(=O)N1CCC2(CC1)CC(COC)N(Cc1ccccn1)C2.O=C(O)C(F)(F)F` (centres unmarked) | 7.441 |

Some entries from above, unchanged:

* CN1CCCN(C(=O)c2cccc(S(=O)(=O)NCC3(C)COC3)c2)CC1 | 25.37%
* COCC(O)CN(C)c1ccnc2cc(F)ccc12 (centres unmarked) | -13.54%
* COc1ccc(S(=O)(=O)NCc2cccnc2N(C)C)cc1F | -3.014%
* N#Cc1cc(NS(=O)(=O)c2ccc(C(=O)O)cc2F)ccc1F | 26.33%
* CCc1ncncc1C(=O)N1CCN(Cc2ccsc2)CC1 | -27.62%
* CN1CCC2(CC1)CN(C(=O)c1onc3ccccc13)CCCN2C | -14.69%
* CC(C)N1CCC(CC(=O)NC(C(=O)O)c2cc(F)ccc2F)CC1 (centres unmarked) | -3.961%
* Cc1cc(C(=O)N2CCC[C@]3(C[C@@H](OCC4CC4)CO3)C2)no1 | 8.124%
* CCc1nn(C)c2[nH]nc(NC(=O)c3cccnc3OC)c12 | -13.63%